Some results were stated once for a whole list of compounds, not compound by compound. At least one structure is not confirmed: it was looked up by name or label, or the drawing left a doubt.
Tested on: human neutrophils
Test: MPO activity of TNFα-activated neutrophils incubated overnight with single or combined phytonutrients
Assay type: cell-based
Settings: sole addition
Method: 100 μl of 37° C. O-dianisidine hydrochloride solution (1 mg O-dianisidine, 10 ml phosphate buffer pH 6.0+0.0015% H2O2) were added to 100 μl supernatant in a 96-well plate immediately before the optical density was followed by the change of absorbance at 450 nm at 2 minute intervals on a Thermomax Microplate Reader (Molecular Devices, Melno Park, Calif.).
Tocopherol and phytosterol were added to 5×10^5 human neutrophils 20 min before addition of 100 ng/ml TNFα and maintained overnight at 37° C. in a humidified atmosphere containing 5% CO2. MPO activity was measured in the supernatant of the cultured neutrophils.
Zeta carotene, phytoene, tocopherol, phytosterol, or combinations thereof, were added to 5×10^5 human neutrophils 20 min before addition of 100 ng/ml TNFα and maintained overnight at 37° C. in humidified atmosphere containing 5% CO2. MPO activity was measured as escribed above.
The inventors examined the effect of multiple phytonutrients on MPO activity in stimulated neutrophils. The sole addition of tocopherol or phytosterol had no effect on the release and activity of MPO from neutrophils activated with TNFα (FIGS. 13A-13B).
The inventors also examined the effect of adding zeta carotene with either phytoene, a tocopherol, or a phytosterol, on MPO activity. […]

Row | Compound | inhibition of MPO activity
1 | CC(C)=CCC/C(C)=C/CC\C(C)=C/C=C/C(C)=C/C=C/C=C(C)/C=C/C=C(/C)CC/C=C(\C)CCC=C(C)C [zeta carotene] | ≤ 5%
2 | phytosterol | ≤ 5%
